Measurements published in patent US8603968B2, “Cyclic peptides comprising at least one aza-β3-aminoacyl residue and their uses” (Centre National de la Recherche Scientifique, priority 2007, dated 2013).
Read-outs that look alike come from different tables or passages of the source. Part of at least one peptide drawing is inferred or uncertain, most often the ends. Some entries share one result that the patent states for a list of compounds.

Key:
[1] = test system: Streptococcus aureus; assay: Antibacterial activity in poor medium enriched with beef extract PBB (MIC, MBC); assay type: cell-based
Description: (§1) The tests were carried out on Gram-negative bacterial strains of Group 2 (pathogens): Escherichia coli, Salmonella thyphimurium, Pseudomonas aeruginosa, Klebsiella pneumonie and on Gram-positive strains: Bacillus megaterium (group 1) and […] (group 2).
(§2) The bacteria are incubated in a PB poor medium in the case of the bacteria: Escherichia coli, Pseudomonas aeruginosa, Klebsiella pneumoniae, Bacillus megaterium and in a poor medium enriched with beef extract PBB in the case of two other bacteria: […] and Salmonella thyphimurium with increasing concentrations of peptides or analogues ranging from 1 to 320 μg/ml. This test is carried out in 96-well microplates. After incubation for 18 hours at 30° C. or 37° C., the optical density of the microplates is read at 595 nm in order to evaluate the bacterial growth and determine the minimum inhibitory concentration (MIC) for each molecule tested. Each measurement is performed in triplicate.
(§3) Moreover, the minimum bactericidal concentration (MBC) is determined by plating the contents of the wells where there is an absence of bacterial growth on dishes containing rich media (Luria broth or (LB) or Brain Heart Infusion (BHi). The MBC corresponds to the concentration at which no bacterial colony is detected after incubation for 24 hours at 30 or 37° C.

[2] = test system: Escherichia coli, Salmonella thyphimurium, Pseudomonas aeruginosa, Klebsiella pneumoniae, Bacillus megaterium and Streptococcus aureus; assay: Antibacterial activity in PB/PBB poor medium (MIC), all strains tested; assay type: cell-based; settings: 18 hours, bacteria tested
[3] = test system: K. pneumoniae; assay: Antibacterial activity in PB poor medium; assay type: cell-based, Klebsiella pneumoniae
[4] = test system: Gram-positive bacteria; assay: Antibacterial activity in poor medium (MIC), Gram-positive bacteria; assay type: cell-based
[5] = test system: Salmonella thyphimurium; assay: Antibacterial activity in poor medium enriched with beef extract PBB; assay type: cell-based
Description: as §1, §2, §3

Row | Structure (SMILES) | bactericidal concentration [1] [µg/mL] | concentration at which active ([1]; PBB medium, increasing doses (FIG. 3)) | bactericidal concentration ([1]; listed as NafNAf) [µg/mL] | minimum inhibitory concentrations (MICs) of bacterial proliferation [2] | antibacterial activity [3] | MICs [4] | bactericidal concentration [5] [µg/mL] | concentration at which active ([5]; PBB medium, increasing doses (FIG. 4))
1 | CC(C)C[C@@H]1NC(=O)CN(Cc2cccc3ccccc23)NC(=O)[C@H](CC(C)C)NC(=O)CN(Cc2cccc3ccccc23)NC(=O)[C@H](CCCCN)NC(=O)CN(CCCCN)NC1=O [NafNaf, c[-Leu-azaβ^3Lys-Lys-azaβ^3(1)Nal-Leu-azaβ^3(1)Nal-]] | 10 | less than 20 μg/mL | 20 | less than 100 μg/mL | active | approximately ten | 20 | less than 20 μg/mL
2 | CC(C)CN1CC(=O)N[C@@H](Cc2c[nH]c3ccccc23)C(=O)NN(CC(C)C)CC(=O)N[C@@H](CCCCN)C(=O)NN(CCCCN)CC(=O)N[C@@H](Cc2c[nH]c3ccccc23)C(=O)N1 [TrypTryp, c[-Lys-azaβ^3Lys-Trp-azaβ^3Leu-Trp-azaβ^3Leu-]] |  |  |  | less than 100 μg/mL |  |  |  | 
